Data: PubChem BioAssay AID493014 (National Center for Advancing Translational Sciences (NCATS), 2011)
Some of the results follow. Shown are side measurements of this screen, not its main read-out; they come without a call. Most of these compounds were active or inconclusive in the main read-out, so they are no random draw. Potencies come from curve fits of mixed quality, noted in brackets.

Assay: qHTS Assay to Find Inhibitors of Chronic Active B-Cell Receptor Signaling
Conditions: ABC-DLBCL IkBa-CBG/CBR reporter, luminescence ratio (green luciferase fused to IkBa over red control in TMD8 lymphoma cells), 4 h
Outline: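 TMD8 ABC-DLBCL cells carrying doxycycline-inducible green luciferase fused to IkappaBalpha plus unfused red luciferase were exposed to compounds (up to 46 uM) for 4 hrs at 37C. Activity came from the overlap-corrected green/red luminescence ratio.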

[1] = measured here: CBR red luminescence, cell number
[2] = measured here: IkBa-CBG green luminescence

O=c1c(-c2ccc(Br)cc2)coc2c(CN3CCOCC3)c(O)ccc12
AC50 [1]: 16.4 µM [rising, partial curve, poor fit]

COCCOC(=O)C1=C(C)NC(=S)NC1c1cccs1 (stereo unspecified)
AC50 [1]: 1.41 µM [rising, full curve, poor fit]

CC1CC1C(=O)OCc1cc(=O)n2cc(Br)ccc2n1 (stereo unspecified)
AC50 [1]: 1.78 µM [rising, partial curve, poor fit]

O=C1N=C(N2CCOCC2)S/C1=C/c1ccc(-c2ccc(F)cc2)o1
AC50 [1]: 0.112 µM [rising, full curve, poor fit]

COc1ccc(CCNS(=O)(=O)c2ccc3c(c2)OCCO3)cc1
AC50 [1]: 32.6 µM [rising, partial curve, poor fit]

O=c1[nH]c(CN2CCN(c3ccc(O)cc3)CC2)nc2scc(-c3ccc(Cl)cc3)c12
AC50 [1]: 25.1 µM [falling, single point]

C=CCn1c(CC(=O)OC)csc1=Nc1ccc(C(C)=O)cc1
AC50 [1]: 17.8 µM [rising, partial curve, poor fit]

Cc1cc(N2CCCC2)ccc1/C=N/n1cnnc1
AC50 [1]: 10.3 µM [rising, partial curve]

Cn1cnc([N+](=O)[O-])c1S(=O)(=O)c1ccc(Cl)cc1
AC50 [1]: 14.6 µM [falling, partial curve]
AC50 [2]: 16.4 µM [rising, partial curve, poor fit]

COc1cc(-c2nn3c(-c4cccc(C)c4)nnc3s2)cc(OC)c1OC
AC50 [1]: 14.6 µM [rising, partial curve, poor fit]

CC(C)CN(C(=O)COC(=O)c1c2c(nc3ccccc13)CCC2)c1c(N)n(Cc2ccccc2)c(=O)[nH]c1=O
AC50 [1]: 28.2 µM [falling, single point]

Fc1cc2nccnc2cc1N1CCSCC1
AC50 [1]: 29.1 µM [falling, single point]

CC(C)NC(=O)c1ccc(COCC(F)(F)C(F)F)cc1
AC50 [1]: 29.1 µM [rising, single point]

CCOC(=O)c1ccc(-c2ccc3[nH]c4ccccc4c(=O)c3c2)cc1F
AC50 [1]: 11.2 µM [rising, single point]

CC(=O)OC1CC(C)N(C(=O)c2ccccc2)c2ccc(C)cc21 (stereo unspecified)
AC50 [1]: 1.84 µM [rising, partial curve, poor fit]

Cc1cc(C(=O)Nc2cccc(NC(=O)c3ccco3)c2)ccc1[N+](=O)[O-]
AC50 [1]: 5.01 µM [falling, full curve, poor fit]

COc1ccc(C(=O)n2cc(C(C)=O)c3ccccc32)cc1
AC50 [1]: 15.8 µM [rising, single point]

CC(/C=C/c1ccco1)=N/NC(=O)C1COc2ccccc2O1 (stereo unspecified)
AC50 [1]: 25.1 µM [rising, single point]

CCOc1ccc(C(=O)NCC(=O)OCCN2C(=O)c3ccccc3C2=O)cc1OCC
AC50 [1]: 29.1 µM [rising, single point]

COc1ccc(N(C)C(=O)CCC(=O)Nc2ccc3nc(N4CCOCC4)cc(C)c3c2)c(OC)c1
AC50 [1]: 35.5 µM [falling, single point]

O=C(Oc1ccccc1)c1ccc(NC(=O)c2ccco2)cc1
AC50 [1]: 14.6 µM [rising, partial curve, poor fit]

COc1ccc(C)c2sc(N(CCN(C)C)C(=O)c3cccc(N4C(=O)CCC4=O)c3)nc12
AC50 [1]: 29.1 µM [falling, single point]

Cc1ccc(CS(=O)(=O)c2ncc(Cl)c(C(=O)Nc3nnc(C(C)C)s3)n2)cc1
AC50 [1]: 35.5 µM [falling, single point]

CN(C)CCNC(=O)c1ccc(Cl)s1
AC50 [1]: 0.517 µM [falling, full curve, poor fit]

COC(=O)c1ccccc1S(=O)(=O)N(Cc1ccco1)Cc1cc2cc(OC)ccc2[nH]c1=O
AC50 [1]: 0.00461 µM [rising, full curve, poor fit]

COc1ccc([C@@H]2C[C@H](c3ccccc3)Oc3cc(OC)c(OC)c(OC)c32)cc1
AC50 [1]: 12.6 µM [rising, partial curve, poor fit]

Cc1cc(C(=O)Nc2cc(Br)ccc2O)on1
AC50 [1]: 11.2 µM [falling, partial curve, poor fit]

Cc1nc2nc(SCC(=O)NCc3ccco3)nn2c(C)c1Cc1c(F)cccc1Cl
AC50 [1]: 7.08 µM [falling, partial curve, poor fit]

NC(=O)c1c(NC(=O)CSc2nc(N)cc(=O)[nH]2)sc2c1CCCC2
AC50 [1]: 1.26 µM [rising, full curve, poor fit]
AC50 [2]: 7.94 µM [falling, partial curve]

CCCOC(=O)c1ccc(Oc2cn[nH]c2-c2ccc(OCC(=O)NN)cc2O)cc1
AC50 [1]: 35.5 µM [falling, single point]

CC(C)(C)NCc1cc(Cl)ccc1OCc1cccs1
AC50 [1]: 18.4 µM [falling, partial curve, poor fit]

CN(C)C(=O)CSc1nc2ccccc2n1Cc1ccccc1
AC50 [1]: 18.4 µM [falling, partial curve, poor fit]

COc1ccccc1NC(=S)NC1CC2CCC1C2 (stereo unspecified)
AC50 [1]: 15.8 µM [rising, partial curve, poor fit]

COc1ccc(Cl)cc1N1CCN(CCNC(=O)Nc2ccccc2C)CC1
AC50 [1]: 3.26 µM [rising, partial curve, poor fit]

Cc1ccc(NC(=O)Nc2ccccc2C(=O)NCc2ccccc2)cc1
AC50 [1]: 0.116 µM [falling, full curve]

C=C(C)c1cccc(C(C)(C)NC(=O)N2CCCC(C)C2)c1 (stereo unspecified)
AC50 [1]: 13 µM [falling, partial curve]
AC50 [2]: 20.6 µM [rising, partial curve, poor fit]

COc1cc2nc(SCC(=O)NCCc3ccccc3)n(Cc3ccco3)c(=O)c2cc1OC
AC50 [1]: 0.231 µM [falling, partial curve, poor fit]

O=C(NC1CCCC1)C(c1ccncc1)N(C(=O)c1csnn1)c1ccccc1F (stereo unspecified)
AC50 [1]: 35.5 µM [falling, single point]

Nc1nsc2ccccc12
AC50 [1]: 25.9 µM [falling, single point]

CC(C)Cn1c(N)c(C(=O)COC(=O)c2cc(C(F)(F)F)nc3c(C(F)(F)F)cccc23)c(=O)n(C)c1=O
AC50 [1]: 7.31 µM [rising, partial curve, poor fit]

CCCCC(=O)Nc1ccc(Br)cc1C(=O)O
AC50 [1]: 2.31 µM [falling, full curve]
AC50 [2]: 29.1 µM [rising, partial curve, poor fit]

CC(Oc1ccccc1)C(=O)OCC(=O)NC(=O)NC1CCCCC1 (stereo unspecified)
AC50 [1]: 0.206 µM [rising, full curve, poor fit]

C/C(=N\NC(=O)c1ccc(N2CCCC2=O)cc1)c1ccncc1
AC50 [1]: 0.447 µM [rising, full curve, poor fit]

COc1ccc(-c2nc(C#N)c(N3CCN(c4ccccc4)CC3)o2)cc1
AC50 [1]: 5.8 µM [falling, single point]

Clc1ccccc1OCc1nnc(-c2ccccc2Br)o1
AC50 [1]: 6.31 µM [rising, single point]

CNC(=O)CC1C(=O)N(c2ccc(F)cc2)C(=S)N1NC(=O)c1ccc(Br)cc1 (stereo unspecified)
AC50 [1]: 35.5 µM [falling, partial curve, poor fit]

COc1cccc(CNC(=O)CNC(=S)N(Cc2ccccc2)Cc2ccccc2F)c1
AC50 [1]: 17.8 µM [falling, single point]

O=C(c1cnn(-c2ccccc2)c1)c1ccccc1O
AC50 [1]: 13 µM [falling, partial curve]

Cc1nnc(SCC(=O)N2CCN(c3ccccc3F)CC2)n1C1CC1
AC50 [1]: 23.1 µM [rising, single point]

C/C(=N\NC(=S)NCc1ccccc1)c1ccc(Br)cc1
AC50 [1]: 5.62 µM [rising, single point]

Cc1ccc(CN2CCN(Cc3ccc4cc(F)ccc4n3)CC2CCO)o1 (stereo unspecified)
AC50 [1]: 5.62 µM [rising, single point]

CC(/C=C/c1ccc2c(c1)OCO2)=N/NC(=O)c1cccnc1
AC50 [1]: 20.6 µM [falling, partial curve, poor fit]

CCOc1cc(-c2nc(-c3ccccc3OC)no2)cc(OCC)c1OCC
AC50 [1]: 29.1 µM [rising, partial curve, poor fit]

COc1ccccc1CCC(=O)OCC(=O)Nc1ccc(S(N)(=O)=O)cc1
AC50 [1]: 11.2 µM [rising, partial curve]

Cc1ccc(OCCSc2nc(N)cc(N)n2)cc1
AC50 [1]: 1.78 µM [rising, full curve, poor fit]

CC(C)(C)c1ccc(NC(=O)c2c(F)cccc2Cl)cc1
AC50 [1]: 5.62 µM [falling, partial curve, poor fit]

CCOC(=O)C1CCCN(C(=O)c2ccccc2Oc2ccccc2)C1 (stereo unspecified)
AC50 [1]: 35.5 µM [rising, single point]

Cc1ccc(OCCCC(=O)Nc2ccc3c(c2)OCCO3)cc1
AC50 [1]: 6.51 µM [falling, single point]

COc1ccccc1NC(=O)Cc1nnc(SCC(=O)Nc2ccc(F)cc2F)n1C
AC50 [1]: 35.5 µM [falling, single point]

CCc1cc(/C(Cc2ccc3ccccc3n2)=N\O)c(O)cc1O
AC50 [1]: 12.6 µM [falling, single point]

COc1cccc(C2CC(c3ccccc3)=NN2S(=O)(=O)c2ccc(C)cc2)c1OC (stereo unspecified)
AC50 [1]: 8.91 µM [rising, partial curve, poor fit]

CCOC(=O)C1=C(C)n2c(s/c(=C3\C(=O)Nc4ccccc43)c2=O)=NC1c1ccc(OC)cc1 (stereo unspecified)
AC50 [1]: 13 µM [falling, single point]
